Library screening results

By UniProt entry, the sequences of proteins in these tests, tags left out.
UniProt E9BF75, entry or part of it: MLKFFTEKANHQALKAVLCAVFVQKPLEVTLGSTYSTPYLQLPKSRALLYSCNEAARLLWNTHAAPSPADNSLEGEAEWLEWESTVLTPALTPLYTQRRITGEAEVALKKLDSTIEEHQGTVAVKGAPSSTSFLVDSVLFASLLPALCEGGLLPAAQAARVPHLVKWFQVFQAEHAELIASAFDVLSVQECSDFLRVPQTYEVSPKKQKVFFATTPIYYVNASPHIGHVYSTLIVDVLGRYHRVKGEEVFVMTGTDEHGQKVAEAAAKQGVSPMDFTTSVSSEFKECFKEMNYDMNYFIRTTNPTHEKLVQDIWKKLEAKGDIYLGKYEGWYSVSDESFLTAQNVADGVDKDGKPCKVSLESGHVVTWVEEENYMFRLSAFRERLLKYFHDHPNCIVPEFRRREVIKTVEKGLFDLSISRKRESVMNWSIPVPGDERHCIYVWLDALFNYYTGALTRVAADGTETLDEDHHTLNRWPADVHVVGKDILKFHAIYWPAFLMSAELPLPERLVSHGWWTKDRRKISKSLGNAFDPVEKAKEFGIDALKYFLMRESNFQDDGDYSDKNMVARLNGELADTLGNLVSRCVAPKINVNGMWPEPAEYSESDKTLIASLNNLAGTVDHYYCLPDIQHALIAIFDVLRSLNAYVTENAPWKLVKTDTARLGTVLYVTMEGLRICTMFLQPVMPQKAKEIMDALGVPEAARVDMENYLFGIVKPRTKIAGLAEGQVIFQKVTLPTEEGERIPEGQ

The values are deposited in ChEMBL (CHEMBL3988442, “University of Dundee, Small-Polar-MMV Screening Library” (2021)).

Mtb heat-shock: 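Assay on Mycobacterium tuberculosis, filed only as a heat shock assay from Cornell; the read-out is not stated. The concentration is filed as 10 mM, unlikely as a test dose, so the dose is not known. Direction is inferred from retests: higher values go with stronger inhibition. About 69,000 compounds were tested under these conditions; 1.4% (about 930) showed 50% or more at least once.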
Mtb growth Cornell: 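Whole-cell assay for inhibitors of Mycobacterium tuberculosis growth, labelled Cornell in the record; the read-out is not stated. The concentration is filed as 10 mM, unlikely as a test dose, so the dose is not known. Higher means stronger inhibition (inferred from two other growth screens of the library). Of about 53,000 compounds tested this way, about 900 (1.7%) reached 50% or more in at least one test.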
LdMetRS: 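Methionyl-tRNA synthetase (putative), Leishmania donovani (UniProt E9BF75). Primary screen of methionyl-tRNA synthetase; the read-out is not stated. The test concentration is not given. Values are per cent inhibition. Of about 68,000 compounds tested this way, about 24 (0.035%) reached 50% or more in at least one test.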

All values are in %.
The controls that fix the scale are not given in the record; negative values are as filed.
The compounds are a random part of those screened.
A dash means the value is not listed here; it may have been measured.

compound | Mtb heat-shock | Mtb growth Cornell | LdMetRS
CC(=O)N1CCC2(CC1)CN(C(=O)c1cccc3[nH]ccc13)C2 | -1.465% | -8.763% | 7.343%
Cc1ccccc1CS(=O)(=O)c1nnc(C(C)NC(=O)OC(C)(C)C)o1 (stereo not shown) | 89.48% | 104.2% | 7.317%
CNC(=O)[C@H]1C[C@@H]2CCN(c3nnc(C)s3)C[C@@H]2O1 | - | - | 8.458%
CC(C)(C)SCCN1CC(=O)N2CC[C@@H](O)C[C@H]2C1=O | - | - | 15.87%
O=C(O)C(F)(F)F.O=C(O)C(F)(F)F.[H][C@@]12COC[C@]1(COCc1ccncc1)CN(Cc1cccc(F)c1)C2 | -19.21% | 10.2% | -
O=C(c1cc(Br)ccc1Cl)N1CCN(Cc2ccco2)CC1 | -2.501% | 16.59% | 1.907%
CC1CCCCN1C(=O)c1coc(COc2cccc3cnccc23)n1 (stereo not shown) | 48.7% | 43.86% | 14.09%
CC(C)N1CCC(N2CCC(C(=O)N(C)C)CC2)CC1.O=C(O)C(F)(F)F.O=C(O)C(F)(F)F | 3.04% | 5.312% | -
CN1CCN(c2ccc(NCc3ccc(OC(F)(F)F)cc3)cn2)CC1 | -7.427% | - | 11.18%
Cc1cccc(C(=O)N2CCN(C)CC2)c1NC(=O)c1ccncc1 | -31.25% | - | 6.529%
O=C(c1cccn1Cc1cccs1)N1CCC(C(=O)N2CCCC2)CC1 | 13.79% | - | 17.61%
O=C(NC[C@H]1OC[C@@H](NCc2ccccc2)[C@@H]1O)Nc1ccc(F)cc1 | -3.977% | -6.52% | 6.441%
COc1c(C2CCCN2CC(=O)NCc2ccccn2)c(C)nn1C (stereo not shown) | 3.367% | -6.96% | 18.23%
Cn1cnc2c1CCN(Cc1nc(-c3ccco3)no1)C2 | -47.84% | 12.02% | 12.93%
O=c1[nH]c(CCN2CCCC(Cn3cncn3)C2)nc2ccccc12 (stereo not shown) | 36.64% | 33.45% | 13.65%
O=C(O)C(F)(F)F.O=C(O)C(F)(F)F.c1ccc(CN2CCn3c(Cn4cncn4)cnc3C2)nc1 | 0.3776% | 9.336% | -
CC1CCN(c2cc(-n3cnc(C(=O)N4CCSCC4)c3)ncn2)CC1 | -3.461% | 17.67% | 15.03%
CCS(=O)(=O)c1ccc(N2CCC(N)CC2)cc1 | 2.404% | 9.599% | 8.042%
CSc1ccccc1-n1ccnc1-c1cn(C2CCNCC2)nn1 | -28.87% | -40.58% | 16.88%
Cc1ccc(C(=O)N2CC[C@H]3[C@H]2CCN3CC2CCOCC2)cc1F | - | - | 6.044%
O=S1(=O)C[C@@H]2[C@H](C1)N(Cc1cc(F)cc(F)c1)CCN2CCO | - | - | 1.272%
Cc1nccn1-c1cccc(C2CCCN2S(=O)(=O)c2cn(C)cn2)n1 (stereo not shown) | -20.2% | - | 5.944%
CCCc1nnsc1C(=O)NCC1CCN(C(=O)c2ccncc2)CC1 | -24.52% | -12.23% | 1.049%
Cc1ccc(N2C(=O)N[C@@H]3CCN(C(=O)C4CC4)[C@@H]3C2=O)cc1 | - | - | 4.396%
CC(NC(=O)c1ccc(=O)n(C)c1)c1ccc(OCC2CC2)c(F)c1 (stereo not shown) | 9.063% | 36.55% | 12.53%
CC(=O)N1CC(c2ncn(C(C)C)n2)c2cc(C(=O)NC3CC3)ccc21 (stereo not shown) | -8.662% | -10.24% | -0.7092%
CN(Cc1ccccc1-n1cccn1)C[C@@H]1CCCN2CCCC[C@H]12 | - | - | 12.54%
CC(=O)N1CCCC1c1cc(N2CCN(C3CCCC3)CC2)cc(C)n1 (stereo not shown) | 0.2873% | - | 12.24%
Cc1nn(C)c(N(C)C)c1CNCc1cccc(Cn2ccnc2)c1 | -1.166% | 15% | 21.11%
O=C(c1ccoc1)N1CC[C@@H]2O[C@@H](COCCN3CCCC3)CC[C@@H]21 | - | - | 8%
Cc1cc(C(=O)NCCN2CCN(S(C)(=O)=O)CC2)no1.Cl | 14.84% | -24.05% | -
Cc1ncc(CN(C)c2nc3c(cnn3C(C)(C)C)c(=O)[nH]2)s1 | -20.18% | - | 3.039%
Cc1cnn(CCNc2nc(C)cc(N(C)C)n2)c1 | -31.16% | - | -0.2688%
O=C(NCC1CC1)c1nnc2ccc(Cl)cc2n1 | 102.8% | 99.3% | 17.37%
O=C(Nc1nccs1)N1CCCC(N2CCNC2=O)C1 (stereo not shown) | -5.487% | -54.21% | 8.374%
NC(=O)c1cccc(OCC(=O)N2CCCC(n3ccnc3)C2)c1 (stereo not shown) | -7.722% | -58.47% | 7.778%
CCN(C(=O)CN1CCCC1c1c(C)nn(C)c1OC)C1CC1 (stereo not shown) | -17.21% | -8.911% | 9.214%
Cc1cc(C[C@@H]2COC[C@H]2NCc2ccc(C)c(C)c2)on1 | - | - | 20.06%
c1cn2c(n1)CN(Cc1ccsc1)CC(Cn1cncn1)C2 (stereo not shown) | - | - | 1.333%
CC(=O)N1CCN(C(=O)CNc2ccc3sccc3c2)CC1 | -5.309% | -15.21% | 4.19%
CCOC(=O)c1nc(COc2ccc(CC(N)=O)cc2)no1 | -1.424% | 3.136% | 8.602%
CC(C)(O)CCc1ccc(C(=O)N2CCN(CCS(C)(=O)=O)CC2)cc1 | -33.51% | 6.137% | 19.05%
Cc1ccc(S(C)(=O)=O)cc1C(=O)NS(=O)(=O)c1ccc(Cl)cc1 | 10.41% | - | 10.51%
CCCN1CCCn2nc(CNS(=O)(=O)c3cccc(F)c3)cc2C1 | 2.037% | -34.67% | 11.72%
CN(CCC#N)C(=O)CN1CCCC1c1ccsc1 (stereo not shown) | 23.53% | 1.794% | 2.857%
Cc1ccc(S(=O)(=O)N2CCCCC(N3CCN(C)CC3)C2)cc1F (stereo not shown) | -4.494% | -1.296% | 7.065%
CC(C)(C)CC(=O)Nc1ncn(CC(=O)NCc2ccccc2)n1 | -13.68% | 0.9849% | 7.038%
O=C(O)C(F)(F)F.O=C1CC[C@]2(CC[C@@H](NC(=O)NCc3cccnc3)CC2)N1 | 2.106% | 1.222% | -
CC(=O)N[C@H]1CCN2C(=O)[C@@H](Cc3c[nH]c4ccccc34)NC(=O)[C@H]12 | - | - | 3.051%
Cc1cc(C)c(CNC(=O)NCC2COCCO2)c(=O)[nH]1 (stereo not shown) | 1.536% | - | 15.26%
O=C(O)C(F)(F)F.O=C(O)C(F)(F)F.[H][C@@]12CN(Cc3ccsc3)CCC[C@]1(C(=O)O)CN(CCOC)C2 | 16.55% | 10.17% | -
CC(C)NC(=O)Cc1cnc(-n2cccc2)s1 | -14.04% | 43.3% | 13.6%
O=C(Nc1ccccc1OCCc1ccccn1)N1CC[C@@H](O)C1 | -43.66% | -2.68% | 14.24%
COCc1cccc(S(=O)(=O)N2CCSCC2)c1 | -31.65% | - | -39.45%
Cc1cccc(OC2CCN(C(=O)NCc3cc[nH]n3)CC2)c1C | -17.11% | - | 4.658%
O=C(c1ccc2c(c1)[nH]c(=O)n2C1CCCC1)N1CC(O)C1 | 6.596% | -27.14% | 5.177%
CCCc1cc(=O)n(CC(=O)NC(C)C)c(-n2nc(C)cc2C)n1 | 96.11% | 19.53% | 15.77%
CC(=O)N1[C@H](Cn2cncn2)C[C@@H]2CN(c3ncc(F)cn3)CC[C@@H]21 | - | - | 16.61%

For reference, 7 entries once more:

compound,Mtb heat-shock,Mtb growth Cornell,LdMetRS
Cc1cc(C[C@@H]2COC[C@H]2NCc2ccc(C)c(C)c2)on1,-,-,20.06%
Cn1cnc2c1CCN(Cc1nc(-c3ccco3)no1)C2,-47.84%,12.02%,12.93%
O=C(NC[C@H]1OC[C@@H](NCc2ccccc2)[C@@H]1O)Nc1ccc(F)cc1,-3.977%,-6.52%,6.441%
Cc1ccc(S(=O)(=O)N2CCCCC(N3CCN(C)CC3)C2)cc1F (stereo not shown),-4.494%,-1.296%,7.065%
O=C(NCC1CC1)c1nnc2ccc(Cl)cc2n1,102.8%,99.3%,17.37%
CC(C)NC(=O)Cc1cnc(-n2cccc2)s1,-14.04%,43.3%,13.6%
O=C(O)C(F)(F)F.O=C(O)C(F)(F)F.[H][C@@]12COC[C@]1(COCc1ccncc1)CN(Cc1cccc(F)c1)C2,-19.21%,10.2%,-